Values are relative to the signal before dosing, not to a vehicle control; the signal also falls without drug.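 Fibroblast labels name human fibroblasts: mostly primary ones from tissues such as uterus (C12385, HUF), lung (H6013), bone (Hs27A), adrenal (HADF) and skin (WS1), plus mammary HMF and breast cancer-associated Hs343T. The cancer cells are basal-like or mesenchymal-like triple-negative breast cancer lines. The paper calls a changed response a hit when it shifts by more than 3x the replicate standard deviation. The tissue of the other fibroblasts is not given here.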
System: HCC1143
Experiment: relative JC-1 red fluorescence (viability) vs pre-drug, coculture with fibroblast (fraction); higher = more viable cancer cells
Description: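 JC-1 labelled TNBC cells cocultured 1:1 (1,500 cells each) with CellTrace Violet stained primary or stromal fibroblasts in 384-well plates in FluoroBrite medium, treated with one of 42 anticancer drugs at 0.1, 1, 10 or 100 uM. JC-1 red fluorescence (mitochondrial integrity in cancer cells only) was read by plate reader every 8 h for 72 h. Values are normalised to each well's pre-drug value. The stock of one drug was tenfold lower, so its dose labels may be too high.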

CS(=O)(=O)CCNCc1ccc(-c2ccc3ncnc(Nc4ccc(OCc5cccc(F)c5)c(Cl)c4)c3c2)o1 [Lapatinib]
relative JC-1 red fluorescence
Conditions	8 h	16 h	24 h	32 h	40 h	48 h	56 h	64 h	72 h
10 µM, coculture fibroblast: C12385	0.858	0.775	0.69	0.591	0.51	0.4664	0.449	0.451	0.455
10 µM, coculture fibroblast: H6013	0.757	0.6375	0.573	0.553	0.462	0.446	0.417	0.412	0.452
10 µM, coculture fibroblast: H6019	0.853	0.801	0.7918	0.728	0.683	0.6526	0.628	0.6132	0.5826
10 µM, coculture fibroblast: H6076	0.8497	0.858	0.819	0.7356	0.7398	0.733	0.718	0.711	0.713
10 µM, coculture fibroblast: H6231	0.824	0.8738	0.808	0.59279	0.702	0.665	0.652	0.643	0.642
10 µM, coculture fibroblast: HADF	0.706	0.6167	0.5754	0.597	0.468	0.434	0.407	0.39	0.459
10 µM, coculture fibroblast: HCFa	0.764	0.668	0.64	0.65	0.562	0.536	0.517	0.509	0.584
10 µM, coculture fibroblast: HCPF	0.8214	0.916	0.8661	0.648	0.7602	0.723	0.673	0.642	0.638
10 µM, coculture fibroblast: HHSteC	0.792	0.695	0.671	0.662	0.566	0.545	0.513	0.499	0.524
10 µM, coculture fibroblast: HMF	0.861	0.929	0.882	0.756	0.8164	0.7946	0.7823	0.76995	0.762
10 µM, coculture fibroblast: HPFa	0.916	0.841	0.781	0.706	0.659	0.632	0.616	0.604	0.592
10 µM, coculture fibroblast: HUF	0.934	0.877	0.84	0.7778	0.774	0.76	0.739	0.723	0.697
10 µM, coculture fibroblast: Hs5	0.869	0.901	0.839	0.783	0.734	0.702	0.675	0.652	0.653
10 µM, coculture fibroblast: Hs27A	0.6994	0.6086	0.539	0.554	0.394	0.355	0.333	0.311	0.409
10 µM, coculture fibroblast: Hs343T	0.8496	0.931	0.879	0.744	0.771	0.736	0.689	0.688	0.675
10 µM, coculture fibroblast: WS1	0.866	0.835	0.833	0.803	0.798	0.774	0.763	0.728	0.716
100 µM, coculture fibroblast: C12385	0.853	0.774	0.7	0.643	0.586	0.545	0.516	0.482	0.46
100 µM, coculture fibroblast: H6013	0.719	0.651	0.599	0.58	0.494	0.476	0.454	0.433	0.413
100 µM, coculture fibroblast: H6019	0.841	0.79	0.758	0.714	0.687	0.672	0.628	0.593	0.574
100 µM, coculture fibroblast: H6076	0.8154	0.786	0.757	0.7396	0.69047	0.685	0.667	0.654	0.6681
100 µM, coculture fibroblast: H6231	0.832	0.818	0.725	0.5929	0.622	0.591	0.55	0.516	0.498
100 µM, coculture fibroblast: HADF	0.771	0.673	0.636	0.638	0.553	0.54	0.51	0.489	0.469
100 µM, coculture fibroblast: HCFa	0.8	0.691	0.648	0.621	0.531	0.5	0.446	0.414	0.396
100 µM, coculture fibroblast: HCPF	0.841	0.918	0.903	0.713	0.84	0.809	0.768	0.742	0.718
100 µM, coculture fibroblast: HHSteC	0.8383	0.772	0.737	0.703	0.641	0.617	0.572	0.543	0.499
100 µM, coculture fibroblast: HMF	0.807	0.834	0.7894	0.729	0.71	0.691	0.652	0.62	0.61
100 µM, coculture fibroblast: HPFa	0.829	0.909	0.858	0.871	0.782	0.778	0.818	0.7334	0.768
100 µM, coculture fibroblast: HUF	0.867	0.783	0.728	0.6588	0.617	0.587	0.5414	0.5201	0.486
100 µM, coculture fibroblast: Hs5	0.844	0.86	0.836	0.792	0.739	0.692	0.66	0.635	0.628
100 µM, coculture fibroblast: Hs27A	0.757	0.6828	0.643	0.661	0.533	0.508	0.478	0.451	0.459
100 µM, coculture fibroblast: Hs343T	0.8345	0.85	0.826	0.7637	0.7275	0.7033	0.667	0.6269	0.6029
100 µM, coculture fibroblast: WS1	0.8563	0.773	0.754	0.681	0.635	0.599	0.57	0.546	0.523

Source: the supplement of paper PMC6078165
